Measurements published in patent US7977459 (TOUDAI TLO, dated 2011).
These are yes or no findings as the source states them, for the method shown. Some entries that bind do so weakly or less than the wild type.

How the values were obtained:
[1] = target: T1, mouse AdipoR2 (mouse adiponectin receptor 2) (mouse) (UniProt Q8BQS5); assay: [125I] ligand binding to transfected 293T cells
T1 sequence: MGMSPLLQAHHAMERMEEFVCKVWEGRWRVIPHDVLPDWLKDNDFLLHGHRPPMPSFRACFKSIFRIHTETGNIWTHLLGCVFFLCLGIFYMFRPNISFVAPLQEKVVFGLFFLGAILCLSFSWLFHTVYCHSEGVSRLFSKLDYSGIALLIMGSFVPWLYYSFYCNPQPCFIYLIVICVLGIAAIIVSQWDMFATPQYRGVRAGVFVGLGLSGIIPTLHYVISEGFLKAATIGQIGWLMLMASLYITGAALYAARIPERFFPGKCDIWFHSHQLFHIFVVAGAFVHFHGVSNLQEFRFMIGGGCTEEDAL

[2] = target: T1, mouse AdipoR2 (mouse adiponectin receptor 2) (mouse); assay: [125I] ligand binding to transfected C2C12 myocytes
[3] = target: T1, mouse AdipoR2 (mouse adiponectin receptor 2) (mouse); assay: [125I] ligand binding to C2C12 myocytes transfected with siRNA
[4] = target: T2, human AdipoR1 (human adiponectin receptor 1) (human) (UniProt Q96A54); assay: specific binding to HAEC transfected with siRNA for both receptors
T2 sequence: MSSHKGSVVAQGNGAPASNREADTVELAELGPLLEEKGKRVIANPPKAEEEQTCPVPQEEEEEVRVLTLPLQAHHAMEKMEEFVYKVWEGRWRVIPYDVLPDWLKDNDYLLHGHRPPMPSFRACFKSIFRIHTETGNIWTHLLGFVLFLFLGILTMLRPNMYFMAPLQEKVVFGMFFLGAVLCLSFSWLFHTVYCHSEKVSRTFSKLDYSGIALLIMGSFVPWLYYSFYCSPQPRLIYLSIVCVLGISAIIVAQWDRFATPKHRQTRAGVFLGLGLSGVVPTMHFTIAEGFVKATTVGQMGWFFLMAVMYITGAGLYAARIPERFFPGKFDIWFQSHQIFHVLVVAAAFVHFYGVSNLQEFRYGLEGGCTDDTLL

[5] = target: T3, human AdipoR2 (human adiponectin receptor 2) (human) (UniProt Q86V24); assay: as above
T3 sequence: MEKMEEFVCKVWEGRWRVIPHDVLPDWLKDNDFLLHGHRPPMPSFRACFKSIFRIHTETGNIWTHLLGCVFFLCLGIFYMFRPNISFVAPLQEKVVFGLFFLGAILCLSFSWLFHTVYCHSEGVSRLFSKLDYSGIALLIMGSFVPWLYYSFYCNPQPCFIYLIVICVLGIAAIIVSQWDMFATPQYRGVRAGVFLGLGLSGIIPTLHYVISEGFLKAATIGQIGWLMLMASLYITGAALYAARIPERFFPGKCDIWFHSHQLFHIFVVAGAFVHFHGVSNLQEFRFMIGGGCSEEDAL

[6] = target: T1, mouse AdipoR2 (mouse adiponectin receptor 2) (mouse); assay: specific binding to hepatocytes, transfected with the receptor or with siRNA
[7] = target: T1, mouse AdipoR2 (mouse adiponectin receptor 2) (mouse); assay: [125I] ligand binding to C2C12 myocytes transfected with siRNA for both receptors
[8] = target: T1, mouse AdipoR2 (mouse adiponectin receptor 2) (mouse); assay: [125I] ligand binding and Scatchard analysis, C2C12 myocytes transfected with siRNA
[9] = target: T4, mouse AdipoR1 (mouse adiponectin receptor 1) (mouse), Q91VH1; assay: specific binding to transfected hepatocytes; settings: remark: other sources report otherwise
T4 chain: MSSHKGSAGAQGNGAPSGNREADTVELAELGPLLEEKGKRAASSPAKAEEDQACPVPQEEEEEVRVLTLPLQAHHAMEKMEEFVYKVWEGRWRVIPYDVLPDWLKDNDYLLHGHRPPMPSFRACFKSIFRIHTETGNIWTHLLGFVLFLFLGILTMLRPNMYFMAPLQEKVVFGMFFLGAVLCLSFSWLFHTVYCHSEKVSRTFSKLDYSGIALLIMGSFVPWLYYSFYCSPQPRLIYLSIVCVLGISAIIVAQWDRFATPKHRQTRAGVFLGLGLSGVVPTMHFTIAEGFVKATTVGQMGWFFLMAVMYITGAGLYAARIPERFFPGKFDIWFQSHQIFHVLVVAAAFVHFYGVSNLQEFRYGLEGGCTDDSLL

[10] = target: T4, mouse AdipoR1 (mouse adiponectin …); assay: [125I] ligand binding to transfected 293T cells; settings: remark: other sources report otherwise
[11] = target: T4, mouse AdipoR1 (mouse adiponectin …); assay: [125I] ligand binding to transfected C2C12 myocytes; settings: remark: other sources report otherwise
[12] = target: T4, mouse AdipoR1 (mouse adiponectin …); assay: competitive radioligand binding on C2C12 myocytes transfected with siRNA; settings: remark: other sources report otherwise
[13] = target: T4, mouse AdipoR1 (mouse adiponectin …); assay: [125I] ligand binding to C2C12 myocytes transfected with siRNA for both receptors; settings: remark: other sources report otherwise
[14] = target: T4, mouse AdipoR1 (mouse adiponectin …); assay: [125I] ligand binding and Scatchard analysis, C2C12 myocytes transfected with siRNA; settings: remark: other sources report otherwise

Measured: binding

B1: full-length adiponectin (full-length Adipo) (ligand, mouse, UniProt Q60994 18-247, looked up)
chain: EDDVTTTEELAPALVPPPKGTCAGWMAGIPGHPGHNGTPGRDGRDGTPGEKGEKGDAGLLGPKGETGDVGMTGAEGPRGFPGTPGRKGEPGEAAYVYRSAFSVGLETRVTVPNVPIRFTKIFYNQQNHYDGSTGKFYCNIPGLYYFSYHITVYMKDVKVSLFKKDKAVLFTYDQYQEKNVDQASGSVLLHLEVGDQVWLQVYGDGDHNGLYADNVNDSTFTGFLLYHDTN
modifications: 125I-labeled at Tyr in the radioligand binding assay
notes: also called [125I] full-length Adipo
binds: [1] | [2] | [3] | [4] | [5] | [6] | [7] | [8]

B2: full-length adiponectin (full-length Adipo), Q60994 18-247 (ligand, mouse, UniProt Q60994 18-247, looked up)
chain: EDDVTTTEELAPALVPPPKGTCAGWMAGIPGHPGHNGTPGRDGRDGTPGEKGEKGDAGLLGPKGETGDVGMTGAEGPRGFPGTPGRKGEPGEAAYVYRSAFSVGLETRVTVPNVPIRFTKIFYNQQNHYDGSTGKFYCNIPGLYYFSYHITVYMKDVKVSLFKKDKAVLFTYDQYQEKNVDQASGSVLLHLEVGDQVWLQVYGDGDHNGLYADNVNDSTFTGFLLYHDTN
modifications: here or on the partner: 125I-labeled at Tyr in the radioligand binding assay
binds: [9] | [10] | [11] | [12] | [13] | [14]
